assay: Baseline fluorescence ratio Ro of probe in absence of analyte; settings: Table 4; baseline ratio, no analyte

Row | Molecule | Ro
1 | L1P12F12: FABP probe, substitutions Y14L L72G Y117V vs SEQ ID NO: 2 (protein, listed as Rattus norvegicus, PEPTIDE (1)...(131) wild-type rat intestinal fatty acid binding protein) AFDGTWKVDRNENLEKFMEKMGINVVKRKLGAHDNLKLTITQEGNKFTVKESSNFRNIDVVFELGVDFAYSGADGTELTGTWTMEGNKLVGKFKRVDNGKELIAVREISGNELIQTVTYEGVEAKRIFKKE | 0.28
2 | L1P2F7: FABP probe, substitutions Y14I L72G Y117V vs SEQ ID NO: 2 (protein, listed as Rattus norvegicus, PEPTIDE (1)...(131) wild-type rat intestinal fatty acid binding protein) AFDGTWKVDRNENIEKFMEKMGINVVKRKLGAHDNLKLTITQEGNKFTVKESSNFRNIDVVFELGVDFAYSGADGTELTGTWTMEGNKLVGKFKRVDNGKELIAVREISGNELIQTVTYEGVEAKRIFKKE | 0.32
3 | L1P1F7: FABP probe, substitutions Y14L L38M Y117F vs SEQ ID NO: 2 (protein, listed as Rattus norvegicus, PEPTIDE (1)...(131) wild-type rat intestinal fatty acid binding protein) AFDGTWKVDRNENLEKFMEKMGINVVKRKLGAHDNLKMTITQEGNKFTVKESSNFRNIDVVFELGVDFAYSLADGTELTGTWTMEGNKLVGKFKRVDNGKELIAVREISGNELIQTFTYEGVEAKRIFKKE | 0.22
4 | L1P14A9: FABP probe, substitutions Y14L L72G Y117I vs SEQ ID NO: 2 (protein, listed as Rattus norvegicus, PEPTIDE (1)...(131) wild-type rat intestinal fatty acid binding protein) AFDGTWKVDRNENLEKFMEKMGINVVKRKLGAHDNLKLTITQEGNKFTVKESSNFRNIDVVFELGVDFAYSGADGTELTGTWTMEGNKLVGKFKRVDNGKELIAVREISGNELIQTITYEGVEAKRIFKKE | 0.25
5 | L1P3D6: FABP probe, substitution Y14L vs SEQ ID NO: 2 (protein, listed as Rattus norvegicus, PEPTIDE (1)...(131) wild-type rat intestinal fatty acid binding protein) AFDGTWKVDRNENLEKFMEKMGINVVKRKLGAHDNLKLTITQEGNKFTVKESSNFRNIDVVFELGVDFAYSLADGTELTGTWTMEGNKLVGKFKRVDNGKELIAVREISGNELIQTYTYEGVEAKRIFKKE | 0.24
6 | L1P12G10: FABP probe, substitution Y14I vs SEQ ID NO: 2 (protein, listed as Rattus norvegicus, PEPTIDE (1)...(131) wild-type rat intestinal fatty acid binding protein) AFDGTWKVDRNENIEKFMEKMGINVVKRKLGAHDNLKLTITQEGNKFTVKESSNFRNIDVVFELGVDFAYSLADGTELTGTWTMEGNKLVGKFKRVDNGKELIAVREISGNELIQTYTYEGVEAKRIFKKE | 0.35
7 | L1P11F12: FABP probe, substitutions Y14L L38I vs SEQ ID NO: 2 (protein, listed as Rattus norvegicus, PEPTIDE (1)...(131) wild-type rat intestinal fatty acid binding protein) AFDGTWKVDRNENLEKFMEKMGINVVKRKLGAHDNLKITITQEGNKFTVKESSNFRNIDVVFELGVDFAYSLADGTELTGTWTMEGNKLVGKFKRVDNGKELIAVREISGNELIQTYTYEGVEAKRIFKKE | 0.27
8 | L1P7B11: FABP probe, substitutions Y14I L38I L72V vs SEQ ID NO: 2 (protein, listed as Rattus norvegicus, PEPTIDE (1)...(131) wild-type rat intestinal fatty acid binding protein) AFDGTWKVDRNENIEKFMEKMGINVVKRKLGAHDNLKITITQEGNKFTVKESSNFRNIDVVFELGVDFAYSVADGTELTGTWTMEGNKLVGKFKRVDNGKELIAVREISGNELIQTYTYEGVEAKRIFKKE | 0.21
